Reference: patent publication US20160213739A1, “TREATMENTS FOR DISORDERS USING GUANYLATE CYCLASE C AGONISTS” (Ironwood Pharmaceuticals, Inc., priority 2011, published 2016)
For part of these data: At least one peptide structure holds a part that was inferred or is arguable (an end, a ring closure or a residue). For part of these data: For at least one compound, name, drawing or mass did not settle the structure. Positions of bridges follow the written chain, without caps; N, C: chain ends. Non-standard residues stand in square brackets, D forms with d. Residues, ends and D or L forms follow the SMILES beside them. pS = N[C@@H](COP(=O)(O)O)C(=O)O

By UniProt entry, the sequences of proteins in these tests, tags left out. Residues count along the entry.
UniProt P25092, 24-1073: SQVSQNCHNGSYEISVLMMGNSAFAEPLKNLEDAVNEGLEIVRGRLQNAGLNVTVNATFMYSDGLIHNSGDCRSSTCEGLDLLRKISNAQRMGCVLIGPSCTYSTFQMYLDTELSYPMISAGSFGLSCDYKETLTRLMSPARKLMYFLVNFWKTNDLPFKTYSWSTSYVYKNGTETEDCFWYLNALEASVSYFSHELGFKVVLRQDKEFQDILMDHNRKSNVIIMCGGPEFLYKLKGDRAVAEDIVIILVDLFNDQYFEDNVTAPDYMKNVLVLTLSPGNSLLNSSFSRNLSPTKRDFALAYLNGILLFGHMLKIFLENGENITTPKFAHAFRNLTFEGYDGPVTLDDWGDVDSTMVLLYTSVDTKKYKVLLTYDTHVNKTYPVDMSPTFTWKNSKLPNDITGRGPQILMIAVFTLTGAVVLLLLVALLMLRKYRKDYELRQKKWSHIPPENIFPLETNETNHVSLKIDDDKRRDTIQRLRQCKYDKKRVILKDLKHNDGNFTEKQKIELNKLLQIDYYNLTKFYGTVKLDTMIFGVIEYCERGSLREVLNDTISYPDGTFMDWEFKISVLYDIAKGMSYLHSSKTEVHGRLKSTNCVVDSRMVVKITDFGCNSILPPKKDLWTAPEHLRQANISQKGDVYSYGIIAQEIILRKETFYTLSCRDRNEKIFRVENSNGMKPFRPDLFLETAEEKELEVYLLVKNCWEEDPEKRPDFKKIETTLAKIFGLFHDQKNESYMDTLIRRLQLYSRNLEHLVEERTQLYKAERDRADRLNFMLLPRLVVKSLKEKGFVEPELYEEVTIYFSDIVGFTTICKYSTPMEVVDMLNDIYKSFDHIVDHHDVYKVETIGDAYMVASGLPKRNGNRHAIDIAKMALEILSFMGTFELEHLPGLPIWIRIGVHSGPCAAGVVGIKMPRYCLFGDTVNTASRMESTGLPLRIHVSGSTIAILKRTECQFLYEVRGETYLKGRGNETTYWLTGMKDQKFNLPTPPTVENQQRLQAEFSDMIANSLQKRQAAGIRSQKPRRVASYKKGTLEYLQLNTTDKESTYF

Tests used:
[1] = system: male Wistar rats; assay: Abdominal response to colorectal distension under basal conditions, male Wistar rats; type: in vivo, rat; conditions: vs vehicle
[2] = system: female Wistar rats; assay: Abdominal response to colorectal distension under basal conditions, female Wistar rats; type: in vivo, rat; conditions: Example 7, basal, vs vehicle; for colorectal sensitivity to distension: all distension pressures
[3] = system: female Wistar rats; assay: Stress-induced (partial restraint stress) colorectal hypersensitivity to distension, female Wistar rats; type: in vivo, rat; conditions: vs vehicle; for stress-induced abdominal response (number of abdominal contractions): Example 7, after 2-hour partial restraint stress; for stress-induced increase in colorectal volumes: Example 7, after partial restraint stress
[4] = system: male Wistar rats; assay: TNBS-induced (post-inflammatory) colorectal hypersensitivity to distension, male Wistar rats; type: in vivo, rat; conditions: for TNBS-induced colorectal hypersensitivity (abdominal contractions) / colonic volumes / number of abdominal contractions: vs vehicle; for colonic volumes: Example 5, after TNBS; for colorectal volumes / number of abdominal contractions: Example 6, after TNBS
[5] = molecular target: T1, GC-C (Homo sapiens, UniProt P25092); type: binding; conditions: read-out: dissociation constant for the radioligand, Kd
T1 construct: 4.5×10^5 cells/mL of T84 cells were grown overnight in 24-well tissue culture plates; endogenous in cells; host or cells: T84 cells

[6] = Example 5, basal, 0.03 μg/kg PO

CC(C)C[C@@H]1NC(=O)[C@H](COP(=O)(O)O)NC(=O)[C@@H]2CSSC[C@@H]3NC(=O)[C@H](C)NC(=O)[C@@H]4CCCN4C(=O)[C@H](CC(N)=O)NC(=O)[C@H](CSSC[C@H](N)C(=O)N2)NC(=O)[C@H](CSSC[C@@H](C(=O)O)NC(=O)CNC(=O)[C@H]([C@@H](C)O)NC3=O)NC1=O [Peptide 2, CCpSLCCNPACTGC] (H-CC[pS]LCCNPACTGC-OH; disulfide 1-6, 2-10, 5-13 (inferred); N-terminus and C-terminus assumed)
colonic volumes [1, 6]: no effect | number of abdominal contractions [1, 6]: no effect | colonic volumes ([1]; Example 5, basal, 0.3 μg/kg PO): no effect | number of abdominal contractions ([1]; Example 5, basal, 0.3 μg/kg PO): no effect | number of abdominal contractions ([1]; Example 5, basal, 10 μg/kg PO): no effect | number of abdominal contractions ([1]; Example 6, basal, 3 μg/kg PO, all distension pressures): no effect | colonic volumes ([1]; Example 6, basal, 3 μg/kg PO, except p<0.05 at 30 mmHg): no effect | number of abdominal contractions ([1]; Example 6, basal, 10 μg/kg PO, all distension pressures): no effect | colonic volumes ([1]; Example 6, basal, 10 μg/kg PO): no effect | number of abdominal contractions ([1]; Example 6, basal, 30 μg/kg PO, at 45 mmHg (p<0.01) and 60 mmHg (p<0.05)): significantly decreased | colorectal volumes ([1]; Example 6, basal, 30 μg/kg PO): no effect | colorectal sensitivity to distension ([2]; 3 μg/kg PO): no effect | colonic volumes ([2]; 3 μg/kg PO): no effect | colorectal sensitivity to distension ([2]; 10 μg/kg PO): no effect | colonic volumes ([2]; 10 μg/kg PO): no effect | colorectal sensitivity to distension ([2]; 30 μg/kg PO): no effect | colonic volumes ([2]; 30 μg/kg PO): no effect | stress-induced abdominal response (number of abdominal contractions) ([3]; 3 μg/kg PO): no effect | stress-induced abdominal response (number of abdominal contractions) ([3]; 10 μg/kg PO, at 60 mmHg (p<0.05)): significantly decreased | stress-induced abdominal response (number of abdominal contractions) ([3]; 30 μg/kg PO, all distension pressures (15 mmHg p<0.05; 30 p<0.01; 45 p<0.001; 60 p<0.05)): significantly decreased | stress-induced increase in colorectal volumes ([3]; 3 μg/kg PO): no effect | stress-induced increase in colorectal volumes ([3]; 10 μg/kg PO): no effect | stress-induced increase in colorectal volumes ([3]; 30 μg/kg PO): no effect | TNBS-induced colorectal hypersensitivity (abdominal contractions) ([4]; Example 5, 0.03 μg/kg PO, all distension pressures (15, 30, 45, 60 mmHg)): no significant effect | TNBS-induced colorectal hypersensitivity (abdominal contractions) ([4]; Example 5, 0.3 μg/kg PO, all distension pressures (15 mmHg p<0.001; 30 p<0.01; 45 p<0.05; 60 p<0.01)): significantly decreased | TNBS-induced colorectal hypersensitivity (abdominal contractions) ([4]; Example 5, 10 μg/kg PO, at 15 mmHg (p<0.01)): significantly decreased | colonic volumes ([4]; 0.03 μg/kg PO, all distension pressures (15 mmHg p<0.01; 30, 45, 60 mmHg p<0.001)): significantly decreased | colonic volumes ([4]; 0.3 μg/kg PO): no effect | colonic volumes ([4]; 10 μg/kg PO): no effect | colorectal volumes ([4]; 3 μg/kg PO): no effect | number of abdominal contractions ([4]; 3 μg/kg PO, at 15 mmHg (p<0.001) and 30 mmHg (p<0.001)): significantly decreased | colorectal volumes ([4]; 10 μg/kg PO): no effect | number of abdominal contractions ([4]; 10 μg/kg PO, at 15 mmHg (p<0.01) and 60 mmHg (p<0.01)): significantly decreased | colorectal volumes ([4]; 30 μg/kg PO): no effect | number of abdominal contractions ([4]; 30 μg/kg PO, at 15 mmHg (p<0.001), 30 mmHg (p<0.001) and 60 mmHg (p<0.01)): significantly decreased

CC(C)C[C@@H]1NC(=O)[C@H](CCC(=O)O)NC(=O)[C@@H]2CSSC[C@@H]3NC(=O)[C@H](C)NC(=O)[C@@H]4CCCN4C(=O)[C@H](CC(N)=O)NC(=O)[C@H](CSSC[C@H](NC(=O)[C@H](Cc4ccc(O)c(I)c4)NC(=O)[C@H](Cc4ccccc4)NC(=O)[C@@H](NC(=O)[C@@H](N)CC(N)=O)[C@@H](C)O)C(=O)N2)NC(=O)[C@H](CSSC[C@@H](C(=O)N[C@@H](Cc2ccc(O)cc2)C(=O)O)NC(=O)CNC(=O)[C@H](C)NC3=O)NC1=O [[^125I]-STp, NTFYCCELCCNPACAGCY]
Kd [5]: ~0.015 µM
